These results are taken from publication PMC6465247.

No constants are given. Whether binding was seen depends on the method and setting. For some of these results: In cells and extracts the contact can be indirect. Some entries that bind do so weakly or less than the wild type. Tags and fused reporters may be left off the sequences shown.

Assay [1] deals with T1, HisGST-PDS5A^1-809 (Arabidopsis thaliana) (UniProt B6EUB3).
T1 sequence: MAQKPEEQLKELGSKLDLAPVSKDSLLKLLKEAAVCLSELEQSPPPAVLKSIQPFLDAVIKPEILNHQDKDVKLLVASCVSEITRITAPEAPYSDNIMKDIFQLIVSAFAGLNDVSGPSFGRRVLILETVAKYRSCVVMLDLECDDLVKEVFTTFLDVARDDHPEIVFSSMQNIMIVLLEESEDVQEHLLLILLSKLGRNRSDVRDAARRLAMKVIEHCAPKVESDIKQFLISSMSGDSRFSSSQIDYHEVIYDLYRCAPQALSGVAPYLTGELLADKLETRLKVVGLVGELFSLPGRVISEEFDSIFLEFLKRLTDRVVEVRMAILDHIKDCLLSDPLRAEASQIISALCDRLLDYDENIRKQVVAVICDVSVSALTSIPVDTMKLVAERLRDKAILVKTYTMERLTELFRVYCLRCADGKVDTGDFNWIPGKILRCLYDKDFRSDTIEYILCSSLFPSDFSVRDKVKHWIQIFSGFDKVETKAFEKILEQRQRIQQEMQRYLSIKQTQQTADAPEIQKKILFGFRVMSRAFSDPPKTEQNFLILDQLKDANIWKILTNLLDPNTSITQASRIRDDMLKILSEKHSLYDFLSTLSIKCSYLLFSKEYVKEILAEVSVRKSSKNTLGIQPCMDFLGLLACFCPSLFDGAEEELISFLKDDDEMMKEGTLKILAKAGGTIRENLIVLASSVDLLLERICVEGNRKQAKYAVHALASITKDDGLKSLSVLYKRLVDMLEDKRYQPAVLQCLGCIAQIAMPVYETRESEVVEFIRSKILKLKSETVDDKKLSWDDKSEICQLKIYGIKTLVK
Briefly: pull-down; WAPL removal assay: 50 ng/ul HisGST-PDS5A^1-809-HisMBP-WAPL1 heterodimers on anti-GST agarose beads, incubated with 40, 80, 120 or 200 ng/ul HisMBP-SWI1^1-300; 25 mM Tris-HCl pH 7.5, 100 mM NaCl, 10 mM MgCl2, 2 mM DTT, 10% glycerol, 0.1% Triton X-100; 1 h at 4 °C; supernatant and beads immunoblotted; both purified. In general terms: A western blot detects proteins with antibodies after separation by electrophoresis.

Assay [2] concerns the target T1, HisGST-PDS5A^1-809 (Arabidopsis thaliana). Briefly: pull-down; HisGST-PDS5A^1-809 on GST agarose beads; 1 ug of each protein; 25 mM Tris-HCl pH 7.5, 100 mM NaCl, 10% glycerol; 1 h at 4 °C; washes with 200 mM NaCl and 0.1% Triton X-100; immunoblot with anti-GST and anti-MBP; both purified.
In assay [3] the target is T2, PDS5A^1-809, yeast two-hybrid fusion (Arabidopsis thaliana) (UniProt B6EUB3).
T2 sequence: T1 sequence
The assay is described as follows: two-hybrid; Matchmaker Gold system (Clontech), pGADT7-GW and pGBKT7-GW fusions co-transformed into yeast AH109; growth on SD/-Leu -Trp -His.

In assay [4] the target is T1, HisGST-PDS5A^1-809 (Arabidopsis thaliana). The assay is described as follows: pull-down; co-purification: HisGST-PDS5A^1-809 and HisMBP-WAPL1 co-expressed in E. coli BL21 (DE3)pLysS and purified together on GST agarose beads.

B1: HisMBP-SWI1^1-300 (domain or fragment, UniProt Q9FGN8 1-300)
chain: MSSTMFVKRNPIRETTAGKISSPSSPTLNVAVAHIRAGSYYEIDASILPQRSPENLKSIRVVMVSKITASDVSLRYPSMFSLRSHFDYSRMNRNKPMKKRSGGGLLPVFDESHVMASELAGDLLYRRIAPHELSMNRNSWGFWVSSSSRRNKFPRREVVSQPAYNTRLCRAASPEGKCSSELKSGGMIKWGRRLRVQYQSRHIDTRKNKEGEESSRVKDEVYKEEEMEKEEDDDDGNEIGGTKQEAKEITNGNRKRKLIESSTERLAQKAKVYDQKKETQIVVYKRKSERKFIDRWSVER
Consider B1, for which the binding result in assay [1] and in assay [2] was “binds” each time.

B2: SWI1^1-300, yeast two-hybrid fusion (domain or fragment, UniProt Q9FGN8 1-300)
chain: B1 chain
In the case of B2, the binding result in assay [3] is “binds”.

B3: HisMBP-WAPL1 (protein, UniProt F4I7C7 1-930)
chain: MIIVKLTANRICCSLLQLRRSYEHFYIFVFLPEIPLFRFSHLKLFPKNLQIQRLVSAMMERTYGRRKPGIPRTLSDSLNDSVSQTEYLSSSSSPDIEPIDYSLLPFSSQESSSLWHSSSRSNFREDYPQNGGVVRRAKRVRNGAEAAAFTSTLLEAQEFGELMEHEDEVNFALDGLRKGHQLRIRRASLSSLLSICASQHQRRSLRAQGISQSIIDAILVLSLDDIPSNLAAATLFFALTADGQDEHFMESPKCIKFLIKLLKPVIVTSTEGKPRNIGFKLLSLLKDVDAARDPVKMDDPSSSDILSRVQELLVNCKEMRLNDSYITETTRPELSTKWVALLAMERACVSKISFDDTSGSVKKTGGNFKEKLRELGGLDAVLEVVMDCHAVMERWVEYDALSVQEKKDNLHKQSLMLLLKCLKIMENATFLSTDNQNHLLGFKKCLGSHDSRMSFTELTISVIKMLSGLHLRGGFSSPNTNNVNSHYSNGGNHDSVLEANRKVTNEVVTISSDTYSTVGSISTRNGSVSQRSQSIIHLDFSPTSMSGSQSSVSGNEPTTSKTRVGSTISGSFAGRLASLGSDIARTTLRTTQAGEPICKKFGEFAPPEESEDPFAFDLEDYKPSKWAVVSVNQKKSRAQKKKGCYKQSKDESLYQLFSSQEESSNHRLNSQEESSNRDCSTSLQPSHCTNDIDEECLCLLFDCLLTAVKVLMNLTNDNVVGCRQVGGCRGLESMAELIARHFPSFTRSQLFSEMEKTGSSHQKKDKYLTDQELDFLVAILGLLVNLVERDGVNRSRLASASVPITKPEELQESEQEMIPLLCSIFLTNQGSAETKEETTTFTLDDEEAVLEGEKEAEKMIVEAYSALLLAFLSTESRSIRNSIKDYLPKRNLAILVPVLERFVAFHMTLNMIPPETHKAVMGVIESCKSP
For the molecule B3, the binding entry in assay [1] and in assay [4] was “binds” in each case.

B4: WINGS APART-LIKE 1 (WAPL1), yeast two-hybrid fusion (protein, UniProt F4I7C7 1-930)
chain: B3 chain
In the case of B4, the binding result in assay [3] was “binds”.

B5: SWI1^301-639, yeast two-hybrid fusion (domain or fragment, UniProt Q9FGN8 301-639)
chain: YKLAERNMLKVMKEKNAVFGNSILRPELRSEARKLIGDTGLLDHLLKHMAGKVAPGGQDRFMRKHNADGAMEYWLESSDLIHIRKEAGVKDPYWTPPPGWKLGDNPSQDPVCAGEIRDIREELASLKRELKKLASKKEEEELVIMTTPNSCVTSQNDNLMTPAKEIYADLLKKKYKIEDQLVIIGETLRKMEEDMGWLKKTVDENYPKKPDSTETPLLLEDSPPIQTLEGEVKVVNKGNQITESPQNREKGRKHDQQERSPLSLISNTGFRICRPVGMFAWPQLPALAAATDTNASSPSHRQAYPSPFPVKPLAAKRPLGLTFPFTIIPEEAPKNLFNV
Regarding B5, in assay [3], the binding entry is “no binding”.
